Patent US20220403001A1, “PDE5 DERIVED REGULATORY CONSTRUCTS AND METHODS OF USE IN IMMUNOTHERAPY” (Obsidian Therapeutics, Inc., priority 2018, published 2022)
At least one compound was matched to its structure with a doubt left.

How the values were obtained:
Nalm6 luc cells = assay: Total flux of Nalm6 luc cells in mice given PDE5-regulated CD19 CAR T cells and ligand; format: in vivo
PDE5-regulated CD19 CAR = assay: CD19 CAR expression on T cells with ligand (percent CAR positive, dose response, timecourse, washout, pulsed dosing); format: cell-based; conditions: for timecourse of CD19 CAR expression upon exposure to saturating dose of ligand: FIG. 14A/14B, low and high ligand concentrations; for CD19 CAR expression on the surface of T cells upon washout of ligand: FIG. 15

| SMILES | DD regulated CAR-Ts antitumor efficacy (Nalm6 luc cells; FIG. 9B, increased ligand dose density) | efficacy of PDE5-regulated CD19 CAR-mediated cytotoxicity (total flux of Nalm6 luc cells) (Nalm6 luc cells; FIG. 10, high initial dose with later shift to maintenance dosing, compared to lower dose, mice) | basal CAR activity and efficacy of ligand-regulated CAR-mediated cytotoxicity (total flux of Nalm6 luc cells) (Nalm6 luc cells; FIG. 11, pre-infusion ligand exposure prior to freezing CAR T cells, mice) | timecourse of CD19 CAR expression upon exposure to saturating dose of ligand (PDE5-regulated CD19 CAR) | CD19 CAR expression on the surface of T cells upon washout of ligand (PDE5-regulated CD19 CAR) |
| --- | --- | --- | --- | --- | --- |
| CN1CC(=O)N2[C@H](c3ccc4c(c3)OCO4)c3[nH]c4ccccc4c3C[C@@H]2C1=O [Tadalafil] | significantly increases DD regulated CAR-Ts antitumor efficacy | does not improve efficacy | increases basal CAR activity in vehicle treated animals but does not improve efficacy | low and high tadalafil concentrations achieving similar timecourse | drops rapidly following removal of ligand |
| CCCc1nc(C)c2c(=O)[nH]c(-c3cc(S(=O)(=O)N4CCN(CC)CC4)ccc3OCC)nn12 [Vardenafil] | – | – | – | low and high vardenafil concentrations achieving similar timecourse | drops rapidly following removal of ligand |
